# From PubChem BioAssay AID1654 (Sanford-Burnham Center for Chemical Genomics, 2009)
# Amino acid sequences for entries named in this document (tags omitted). A change or cut given only in a name is not applied to a line headed by its entry.
# UniProt P51452: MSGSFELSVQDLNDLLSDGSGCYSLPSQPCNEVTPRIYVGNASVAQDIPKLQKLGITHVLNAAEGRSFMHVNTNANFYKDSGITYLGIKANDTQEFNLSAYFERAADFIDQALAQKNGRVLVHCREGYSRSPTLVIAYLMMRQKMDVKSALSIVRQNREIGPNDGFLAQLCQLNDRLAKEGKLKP
# Some of the results follow. These are further read-outs of the screen, such as a control signal, another cell line or another target. No call is given for them.
# Biological target: Dual specificity protein phosphatase 3 (Homo sapiens) (UniProt P51452)
# Assay: inhibition of human DUSP3 activity – biochemical, absorbance, uHTS, primary screen (AID 1654)
# Details: recombinant VHR phosphatase, pNPP absorbance; measured here: average of confirmation repeats; at 13.3 µM; stronger effect = higher value
row,SMILES,inhibition [%]
1,Cc1ccc(NC(=O)Cn2c(O)c(N=NC(=O)c3cc([N+](=O)[O-])ccc3O)c3ccccc32)cc1,87.4
2,Cc1cc(C)n(Cc2ccc(C(=O)N/N=C/c3ccc(-c4ccc([N+](=O)[O-])cc4)o3)o2)n1,65
3,NS(=O)(=O)c1cc(C(=O)NC2CCSc3ccccc32)ccc1Cl (configuration not stated),108
4,CN1CCN(C(=O)c2sc(=S)n(-c3ccccc3)c2N)CC1,66.2
5,O=C(O)c1cccc(-c2ccc(/C=c3/sc4nc5ccccc5n4c3=O)o2)c1,79.9
6,Cc1c(CCC(=O)O)c(=O)oc2c(C)c3occ(-c4ccc(Br)cc4)c3cc12,84.9
7,COc1cc(/C=C2\SC(=O)N(c3cccc(Cl)c3)C2=O)cc([N+](=O)[O-])c1O,94.8
8,COc1ccc(NC(=S)N(CCC(C)C)C2CCN(C(C)C)CC2)cc1Cl,83.6
9,NC(=O)C1(N2CCCCC2)CCN(C(=S)Nc2ccc(S(N)(=O)=O)cc2)CC1,81.1
10,Cc1snc2sc(C(=O)c3ccc(F)cc3)c(N)c12,116
11,O=C(O)C1CCC(N2C(=O)c3c(Cl)c(Cl)c(Cl)c(Cl)c3C2=O)CC1 (configuration not stated),89.8
12,COC(=O)c1ccc(=O)c2nc3/c(=C/O)c(O)cc(=O)c3[nH]c12,83.6
13,S=C(NCCCN1CCOCC1)NCCCN1CCOCC1,77.4
14,Cc1cc2nc(-c3ccc(SCc4ccc(C(=O)O)cc4)nc3)[nH]c2cc1C,73.7
15,COc1cccc(/C=N/NC(=O)c2cc3cc([N+](=O)[O-])ccc3s2)c1O,104
16,O=S(=O)(O)c1cccc2c(N=Nc3ccc(O)c4ncccc34)cccc12,92.3
17,Cc1c(CCC(=O)O)c(=O)oc2c(C)c(OCc3cc4c(cc3Cl)OCO4)ccc12,67.5
18,Cc1ccccc1N1C(=O)/C(=C/c2ccco2)C(=O)NC1=S,99.8
19,Cc1ccc(-c2nc(NC(=O)CSc3cc(C)c4ccccc4n3)ns2)cc1,52.6
20,Cc1ccc(/C=C/c2nc3sc(C(=O)O)c(C)c3c(=O)[nH]2)cc1[N+](=O)[O-],94.8
21,O=C(N/N=C/c1ccccc1Cl)c1nc2ccc([N+](=O)[O-])cc2c(=O)[nH]1,116
22,Cc1c(N=Nc2c(-c3ccc([N+](=O)[O-])cc3)[nH]n(C(N)=S)c2=O)cccc1[N+](=O)[O-],82.4
23,S=C(NCCc1ccccc1)Nc1c(Cl)cccc1Cl,87.4
24,COc1cc(/C=C2\SC(=O)N(CC(=O)Nc3ccc(C)cc3)C2=O)cc(Cl)c1OCC(=O)O,108

row,SMILES,inhibition [%]
1,O=C(O)CCN1C(=O)/C(=C2\C(=O)N(Cc3ccccc3Cl)c3ccccc32)SC1=S,115
2,O=C(CN1C(=O)/C(=C2\SC(=S)N(CCS(=O)(=O)O)C2=O)c2ccccc21)Nc1cccc(Br)c1,110
3,CN1C(=O)/C(=C2\SC(=S)N(CCCCCC(=O)O)C2=O)c2ccccc21,101
4,COC(=O)c1sc(NC(=O)c2cc(-c3ccccc3)nc3ccccc23)c(C#N)c1C,72.4
5,COc1ccc(NC(=O)c2cc3c(COC(C)=O)cnc(C)c3oc2=Nc2cccc(C(=O)O)c2)c(OC)c1,101
6,Cc1ccc(NC(=O)CN2C(=O)S/C(=C\c3cccn3-c3cccc(C(=O)O)c3)C2=O)c(C)c1,98.5
7,CCC(=S)/C=C1\Sc2ccccc2N1CCCS(=O)(=O)O,50.1
8,CCOC(=O)c1sc2nc3c(SCCC(=O)O)cc(C(=O)c4cc(OC)ccc4O)cn3c(=O)c2c1C,106
9,Cn1nc(-c2ccccn2)nc2c(=O)n(C)c(=O)nc1-2,101
10,O=C(O)c1cc(-c2ccc(/C=c3\sc4nc5ccc(Br)cc5n4c3=O)o2)ccc1Cl,114
11,COc1cc(/C=C2\SC(=O)N(c3ccc(Cl)cc3)C2=O)cc([N+](=O)[O-])c1O,83.6
12,O=C(N/N=C/c1cn(Cc2cccc(F)c2)c2ccccc12)c1cc(O)cc(O)c1,107
13,Cc1ccc(NC(=O)CN2C(=O)S/C(=C\c3cccn3-c3cccc(C(=O)O)c3)C2=O)cc1C,51.3
14,Cc1ccc(-n2c(=O)c3cc4c(=O)n(-c5ccc(C)c(C)c5)c(=O)c4c(C(=O)c4ccc(C(=O)O)cc4)c3c2=O)cc1C,105
15,CCOc1cc(/C=N/N=C2/NC(=O)C(CC(=O)O)S2)ccc1OCc1ccc(Cl)cc1Cl (configuration not stated),50.1
16,COc1cc(/C=C2\SC(=O)N(Cc3ccc(Cl)cc3)C2=O)cc([N+](=O)[O-])c1O,66.2
17,CCCc1nc2c(=O)n(C)c(=O)nc-2n(C)n1,97.3
18,O=C1NC(=S)N(c2ccc(F)cc2)C(=O)/C1=C/c1ccco1,88.6
19,COc1ccc(N=C2S/C(=C\c3ccc(OCC(=O)O)cc3)C(=O)N2CCc2c[nH]c3ccccc23)cc1,121
20,CS(=O)(=O)c1ccc2c(c1)sc1nc(=O)c(/C=C3/C=CC(=O)C(O)=C3)c(N)n12,86.1
21,O=C(O)c1cccc(-n2cccc2/C=C2/NC(=O)N(c3ccc(Cl)cc3)C2=O)c1,101
22,CN1CCN(C(=S)C(=O)Nc2ccc(Br)cc2)CC1,60
23,COc1ccc(OC)c(N2C(=O)/C(=C/c3ccco3)C(=O)NC2=S)c1,98.5
24,Cn1ncnc2c(=O)n(C)c(=O)nc1-2,122

# Fetched by structure from above, 4 records:
row,SMILES,inhibition [%]
4,COC(=O)c1sc(NC(=O)c2cc(-c3ccccc3)nc3ccccc23)c(C#N)c1C,72.4
17,CCCc1nc2c(=O)n(C)c(=O)nc-2n(C)n1,97.3
14,Cc1ccc(-n2c(=O)c3cc4c(=O)n(-c5ccc(C)c(C)c5)c(=O)c4c(C(=O)c4ccc(C(=O)O)cc4)c3c2=O)cc1C,105
3,CN1C(=O)/C(=C2\SC(=S)N(CCCCCC(=O)O)C2=O)c2ccccc21,101

# Further structures.

row,SMILES,inhibition [%]
1,COc1cc(C(=S)N2CCCCC2)ccc1O,84.9
2,O=c1c(O)cccc2cc(O)c(O)c(O)c12,108
3,CSc1nc(SCC(=O)O)c2sc3nc(-c4ccccc4)c4c(c3c2n1)CCC4,106
4,CCOC(=O)c1sc2nc3c(SCC(=O)O)cc(C(=O)c4ccccc4O)cn3c(=O)c2c1C,108
5,Cc1ccc(-n2c(N)c(C(=O)N3CCN(C)CC3)sc2=S)cc1,53.8
6,COc1ccc(-n2cccc2/C=C2\C(=N)N3N=C(c4ccco4)SC3=NC2=O)cc1,56.3
7,O=C(CSc1nc(-c2ccc(F)cc2)nc2c1Cc1ccccc1O2)Nc1ccc(C(=O)O)cc1,55
8,CCn1nc(/C=C/c2ccccc2)nc2c(=O)n(C)c(=O)nc1-2,107
9,Oc1c(Br)cc(/C=N/n2c(-c3ccccc3)n[nH]c2=S)c(Br)c1O,102
10,O=C(O)COc1ccc(/C=N/NC(=O)c2ccc(-c3csc(Nc4ccc(Cl)cc4)n3)cc2)cc1,106
11,CCOC(=O)C1=C(C)N=c2s/c(=C\c3ccc(OCC(=O)O)cc3)c(=O)n2C1c1ccc(Cl)cc1 (configuration not stated),97.3
12,CCOC(=O)C1=C(C)N=c2s/c(=C/c3ccc(OCC(=O)O)cc3)c(=O)n2C1c1ccc(SC)cc1 (configuration not stated),51.3
13,O=C(Nc1ccc(Cl)c(Cl)c1)Nc1nnc(-c2ccncc2)s1,61.3
14,O=C(O)c1ccc(-c2ccc(/C=c3/sc4nc5ccccc5n4c3=O)o2)cc1Cl,101
15,NS(=O)(=O)c1ccc(NC(=S)NC2CCCCC2)cc1,91.1
16,COC(=O)Nc1sc2c(c1C(N)=O)CCC(C)C2 (configuration not stated),84.9
17,S=C(c1cn(CCOc2ccccc2)c2ccccc12)N1CCCC1,89.8
18,O=C(CSc1nnc(SCc2ccc(Cl)cc2)s1)N/N=C/c1c[nH]c2ccccc12,104
19,O=C(O)CSc1cc(C(=O)c2ccccc2O)cn2c(=O)c3c4c(sc3nc12)CCCC4,96.1
20,Cc1cc(=O)oc2cc(OCC(=O)N/N=C/c3cc([N+](=O)[O-])ccc3O)ccc12,56.3
21,O=C(c1cccs1)c1no[n+]([O-])c1C(=O)c1cccs1,94.8
22,O=c1oc2c(O)c(O)cc3c(=O)oc4c(O)c(O)cc1c4c23,114
23,CCc1ccc(N=C2NC(=O)/C(=C/c3cc(Br)c(OCC(=O)O)c(OC)c3)S2)cc1,88.6
24,O=C(O)c1ccc(NC(=S)NC(=O)c2ccc(-c3ccc(Br)cc3)o2)cc1,106
